Taken from: PubChem BioAssay AID1508588 (Peter MacCallum Cancer Centre, 2020)
Purpose: 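Which gene losses make BRAF-mutant melanoma cells more responsive to vemurafenib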 (primary screen). Cells: human WM266.4 melanoma cells (BRAF V600 mutant). Reagents: siRNA pool against human genes, 40 nM. Timing: 96 h from transfection to read-out. Challenge: vemurafenib 300 nM (about IC25), added 48 h after transfection, for 48 h; comparison arm got DMSO vehicle only. Read-out: 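Ratios to non-targeting siRNA for cell gain, counted as DAPI nuclei after minus before drug and averaged over two replicates, and for absorbance-read medium lactate per cell; both binned into fold-change classes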. Reading the numbers: cell gain with vemurafenib: higher = more cell gain than with non-targeting siRNA; lactate per cell with vemurafenib: higher = more lactate made per cell. Active means: 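a knock-down counts as enhancing when its fold-change classes with vehicle and with vemurafenib, taken together, show a stronger drug effect on cell gain or lactate per cell; exact class pairs not stated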. Calls: active = enhances vemurafenib effect; inactive = no enhancement seen.
This is a random part of about 18,000 reagents tested. Of all reagents, 790 (4.4%) were called active. 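Calls rest on a combination of fold-change classes in drug and vehicle arms, not all shown here.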 Unmarked entries are inactive.

MST1 (macrophage stimulating 1)
- cell gain with vemurafenib: 0.59
- lactate per cell with vemurafenib: 0.96

PGBD5 (piggyBac transposable element derived 5)
- cell gain with vemurafenib: 0.93
- lactate per cell with vemurafenib: 0.67

GOLGA8EP (golgin A8 family member E, pseudogene)
- cell gain with vemurafenib: 0.93
- lactate per cell with vemurafenib: 0.71

CLSPN (claspin)
- cell gain with vemurafenib: 0.02
- lactate per cell with vemurafenib: 2.41

ZNF276 (zinc finger protein 276)
- cell gain with vemurafenib: 0.63
- lactate per cell with vemurafenib: 0.82

ZIC1 (Zic family zinc finger 1)
- cell gain with vemurafenib: 0.38
- lactate per cell with vemurafenib: 1.01

IL1RAPL1 (interleukin 1 receptor accessory protein like 1)
- cell gain with vemurafenib: 0.16 (active)
- lactate per cell with vemurafenib: 0.14

TRPC4
- cell gain with vemurafenib: 0.79
- lactate per cell with vemurafenib: 0.68

CTDSP1 (CTD small phosphatase 1)
- cell gain with vemurafenib: 0.6
- lactate per cell with vemurafenib: 0.83

SNN (stannin)
- cell gain with vemurafenib: 0.11
- lactate per cell with vemurafenib: 1.99

KLHL26 (kelch like family member 26)
- cell gain with vemurafenib: 0.39
- lactate per cell with vemurafenib: 0.57

NUCKS1
- cell gain with vemurafenib: 0.61
- lactate per cell with vemurafenib: 0.52

CPLX4 (complexin 4)
- cell gain with vemurafenib: 0.6
- lactate per cell with vemurafenib: 0.76

OR6K2 (olfactory receptor family 6 subfamily K member 2)
- cell gain with vemurafenib: 1.04
- lactate per cell with vemurafenib: 0.44

FANCI (FA complementation group I)
- cell gain with vemurafenib: 0.72
- lactate per cell with vemurafenib: 1.12

MMP24 (matrix metallopeptidase 24)
- cell gain with vemurafenib: 0.43
- lactate per cell with vemurafenib: 1.31

SFTPD (surfactant protein D)
- cell gain with vemurafenib: 0.45
- lactate per cell with vemurafenib: 1.55

MIR22HG (MIR22 host gene)
- cell gain with vemurafenib: 0.71
- lactate per cell with vemurafenib: 0.75

GP9 (glycoprotein IX platelet)
- cell gain with vemurafenib: 0.32
- lactate per cell with vemurafenib: 1.2

CDKN3 (cyclin dependent kinase inhibitor 3)
- cell gain with vemurafenib: 0.65
- lactate per cell with vemurafenib: 1

CYLC1 (cylicin 1)
- cell gain with vemurafenib: 0.41
- lactate per cell with vemurafenib: 1

TET1 (tet methylcytosine dioxygenase 1)
- cell gain with vemurafenib: 0.63
- lactate per cell with vemurafenib: 0.8

PANK2 (pantothenate kinase 2)
- cell gain with vemurafenib: 0.75
- lactate per cell with vemurafenib: 0.85

DMKN (dermokine)
- cell gain with vemurafenib: 0.54
- lactate per cell with vemurafenib: 0.8

THEMIS (thymocyte selection associated)
- cell gain with vemurafenib: 0.37
- lactate per cell with vemurafenib: 0.8

PCDHB8 (protocadherin beta 8)
- cell gain with vemurafenib: 0.77
- lactate per cell with vemurafenib: 0.4

AKNA (AT-hook transcription factor)
- cell gain with vemurafenib: 0.6
- lactate per cell with vemurafenib: 1.6

8 entries from above, reformatted.
{"target gene": "PGBD5 (piggyBac transposable element derived 5)", "cell gain with vemurafenib": 0.93, "lactate per cell with vemurafenib": 0.67}
{"target gene": "GOLGA8EP (golgin A8 family member E, pseudogene)", "cell gain with vemurafenib": 0.93, "lactate per cell with vemurafenib": 0.71}
{"target gene": "CLSPN (claspin)", "cell gain with vemurafenib": 0.02, "lactate per cell with vemurafenib": 2.41}
{"target gene": "ZNF276 (zinc finger protein 276)", "cell gain with vemurafenib": 0.63, "lactate per cell with vemurafenib": 0.82}
{"target gene": "ZIC1 (Zic family zinc finger 1)", "cell gain with vemurafenib": 0.38, "lactate per cell with vemurafenib": 1.01}
{"target gene": "IL1RAPL1 (interleukin 1 receptor accessory protein like 1)", "cell gain with vemurafenib": "0.16 (active)", "lactate per cell with vemurafenib": 0.14}
{"target gene": "TRPC4", "cell gain with vemurafenib": 0.79, "lactate per cell with vemurafenib": 0.68}
{"target gene": "CTDSP1 (CTD small phosphatase 1)", "cell gain with vemurafenib": 0.6, "lactate per cell with vemurafenib": 0.83}

Additional reagents:
SLC6A14
- cell gain with vemurafenib: 0.58
- lactate per cell with vemurafenib: 1.09

SRPX2 (sushi repeat containing protein X-linked 2)
- cell gain with vemurafenib: 1.07
- lactate per cell with vemurafenib: 1.02

OPN5 (opsin 5)
- cell gain with vemurafenib: 0.22
- lactate per cell with vemurafenib: 2.44

OR13C5 (olfactory receptor family 13 subfamily C member 5)
- cell gain with vemurafenib: 0.57
- lactate per cell with vemurafenib: 0.33

VLDLR (very low density lipoprotein receptor)
- cell gain with vemurafenib: 0.99
- lactate per cell with vemurafenib: 0.77

DDX47 (DEAD-box helicase 47)
- cell gain with vemurafenib: 0.36
- lactate per cell with vemurafenib: 0.44

WNT3A (Wnt family member 3A)
- cell gain with vemurafenib: 0.51
- lactate per cell with vemurafenib: 0.78

FBXL5 (F-box and leucine rich repeat protein 5)
- cell gain with vemurafenib: 0.63
- lactate per cell with vemurafenib: 0.88

C1orf105 (chromosome 1 open reading frame 105)
- cell gain with vemurafenib: 0.72
- lactate per cell with vemurafenib: 0.8

PRDX1 (peroxiredoxin 1)
- cell gain with vemurafenib: 0.54
- lactate per cell with vemurafenib: 1.32

DLX1 (distal-less homeobox 1)
- cell gain with vemurafenib: 0.51
- lactate per cell with vemurafenib: 0.57

LIMD1 (LIM domain containing 1)
- cell gain with vemurafenib: 0.41
- lactate per cell with vemurafenib: 0.8

H2AC12 (H2A clustered histone 12)
- cell gain with vemurafenib: 0.93
- lactate per cell with vemurafenib: 1.1

FEV (FEV transcription factor, ETS family member)
- cell gain with vemurafenib: 0.2
- lactate per cell with vemurafenib: 1.34

HTR2C (5-hydroxytryptamine receptor 2C)
- cell gain with vemurafenib: 0.45
- lactate per cell with vemurafenib: 1.34

GPR31 (G protein-coupled receptor 31)
- cell gain with vemurafenib: 0.94
- lactate per cell with vemurafenib: 0.94

B4GALT4 (beta-1,4-galactosyltransferase 4)
- cell gain with vemurafenib: 0.79
- lactate per cell with vemurafenib: 0.78

TAS2R3 (taste 2 receptor member 3)
- cell gain with vemurafenib: 0.51
- lactate per cell with vemurafenib: 0.68

CTLA4 (cytotoxic T-lymphocyte associated protein 4)
- cell gain with vemurafenib: 0.65
- lactate per cell with vemurafenib: 0.94

ZSWIM4 (zinc finger SWIM-type containing 4)
- cell gain with vemurafenib: 0
- lactate per cell with vemurafenib: 0

GPC5 (glypican 5)
- cell gain with vemurafenib: 0.49
- lactate per cell with vemurafenib: 1.02

PSMA5 (proteasome 20S subunit alpha 5)
- cell gain with vemurafenib: 0.08
- lactate per cell with vemurafenib: 2.23

SARS2 (seryl-tRNA synthetase 2, mitochondrial)
- cell gain with vemurafenib: 0.45
- lactate per cell with vemurafenib: 1.56

KRTAP5-1 (keratin associated protein 5-1)
- cell gain with vemurafenib: 0.71
- lactate per cell with vemurafenib: 0.93

DNAJC21 (DnaJ heat shock protein family (Hsp40) member C21)
- cell gain with vemurafenib: 0.54
- lactate per cell with vemurafenib: 0.66
